Source: patent US20230046828A1
These are yes or no findings as the source states them, for the method shown. Binding calls can cover weak binding; strength is not graded here.

What was measured:
CXCL12 (CXC Ligand 12) [1] = target: CXCL12 (CXC Ligand 12) (UniProt O62657); test: peptide array, unmodified CXCL12 binding peptide probed with CXCL12
CXCL12 (CXC Ligand 12) [2] = target: CXCL12 (CXC Ligand 12) (UniProt O62657); test: alanine-scan SPOT peptide array probed with CXCL12-His6, anti-His-HRP
CXCL12 (CXC Ligand 12) [3] = target: CXCL12 (CXC Ligand 12) (UniProt O62657); test: BLI, biotinylated HMGB1 construct on streptavidin sensor, CXCL12 0-150 µM; response at equilibrium against concentration
CXCL12 (CXC Ligand 12) [4] = target: CXCL12 (CXC Ligand 12) (UniProt O62657); test: BLI, biotinylated HMGB1 construct on streptavidin sensors, CXCL12 0-150 µM
CXCL12 (CXC Ligand 12) [5] = target: CXCL12 (CXC Ligand 12) (UniProt O62657); test: summary of BLI, peptide array and NMR results
CXCL12 (CXC Ligand 12) [6] = target: CXCL12 (CXC Ligand 12) (UniProt O62657); test: BLI interferograms, biotinylated HMGB1 construct on streptavidin sensor, CXCL12 0-150 µM

Binder | binding (CXCL12 (CXC Ligand 12) [1]) | binding (CXCL12 (CXC Ligand 12) [2]) | further results
FR-HMGB1 Box A 1-88 (full HMG Box with flanking regions) (ligand, biotinylated in BLI) GKGDPKKPRGKMSSYAFFVQTCREEHKKKHPDASVNFSEFSKKCSERWKTMSAKEKGKFEDMAKADKARYEREMKTYIPPKGETKKKF |  |  | binding (CXCL12 (CXC Ligand 12) [3]): binds; binding (CXCL12 (CXC Ligand 12) [4]): binds; binding (CXCL12 (CXC Ligand 12) [5]): binds; binding (CXCL12 (CXC Ligand 12) [6]): binds
DPKKPRGKMSSYAFFVQ [SEQ ID NO 105] | binds | binds | 
HKKKHPDASVNFSEF [SEQ ID NO 107] | binds | binds | 
MSSYAFFVQTCREEH [SEQ ID NO 106] | binds | binds | 

The next lines start with results.

binding (CXCL12 (CXC Ligand 12) [1]) | binding (CXCL12 (CXC Ligand 12) [2]) | Binder | further results
binds | binds | KADKARYEREMKTYIPPKG [SEQ ID NO 108] | 
binds | binds | YRPKIKGEHPGLSIG [SEQ ID NO 110] | 
binds |  | DPNAPKRPPSAFFLFCSEY [SEQ ID NO 109] | 
binds |  | LKEKYEKDIAAYRAKGKPD [SEQ ID NO 111] | 
